Binding data for nine molecules are collected here from publication PMC6340896.

No constants are given. Whether binding was seen depends on the method and setting. In cells and extracts the contact can be indirect. These calls come from enrichment with a bait or labelling near it, and not all partners need be listed. Tags and fused reporters may be left off the sequences shown.

In the assay the target is T1, Rpf1 fused to a C-terminal tandem affinity purification (TAP) tag (S. cerevisiae (endogenous in BY4741)) (UniProt P38805).
T1 sequence: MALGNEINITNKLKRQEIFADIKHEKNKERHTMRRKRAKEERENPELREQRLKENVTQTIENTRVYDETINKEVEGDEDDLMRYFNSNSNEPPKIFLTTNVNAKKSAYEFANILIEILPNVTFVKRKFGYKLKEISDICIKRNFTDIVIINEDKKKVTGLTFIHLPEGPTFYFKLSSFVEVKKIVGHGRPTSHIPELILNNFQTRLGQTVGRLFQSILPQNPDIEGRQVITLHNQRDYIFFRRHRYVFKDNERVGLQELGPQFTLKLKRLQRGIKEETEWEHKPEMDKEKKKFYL
The assay can be described thus: affinity purification with mass spectrometry; Rpf1-TAP pre-60S particle from yeast lysate on IgG-coated Dynabeads, released with TEV protease; composition told by mass spectrometry, by cross-linking with mass spectrometry and by the proteins modelled in the map; the particle holds rRNA.

B1: Dbp10 (protein, UniProt Q12389 1-995)
chain: MAGVQKRKRDLEDQDDNGSEEDDIAFDIANEIALNDSESDANDSDSEVEADYGPNDVQDVIEYSSDEEEGVNNKKKAENKDIKKKKNSKKEIAAFPMLEMSDDENNASGKTQTGDDEDDVNEYFSTNNLEKTKHKKGSFPSFGLSKIVLNNIKRKGFRQPTPIQRKTIPLILQSRDIVGMARTGSGKTAAFILPMVEKLKSHSGKIGARAVILSPSRELAMQTFNVFKDFARGTELRSVLLTGGDSLEEQFGMMMTNPDVIIATPGRFLHLKVEMNLDLKSVEYVVFDEADRLFEMGFQEQLNELLASLPTTRQTLLFSATLPNSLVDFVKAGLVNPVLVRLDAETKVSENLEMLFLSSKNADREANLLYILQEIIKIPLATSEQLQKLQNSNNEADSDSDDENDRQKKRRNFKKEKFRKQKMPAANELPSEKATILFVPTRHHVEYISQLLRDCGYLISYIYGTLDQHARKRQLYNFRAGLTSILVVTDVAARGVDIPMLANVINYTLPGSSKIFVHRVGRTARAGNKGWAYSIVAENELPYLLDLELFLGKKILLTPMYDSLVDVMKKRWIDEGKPEYQFQPPKLSYTKRLVLGSCPRLDVEGLGDLYKNLMSSNFDLQLAKKTAMKAEKLYYRTRTSASPESLKRSKEIISSGWDAQNAFFGKNEEKEKLDFLAKLQNRRNKETVFEFTRNPDDEMAVFMKRRRKQLAPIQRKATERRELLEKERMAGLSHSIEDEILKGDDGETGYTVSEDALKEFEDADQLLEAQENENKKKKKPKSFKDPTFFLSHYAPAGDIQDKQLQITNGFANDAAQAAYDLNSDDKVQVHKQTATVKWDKKRKKYVNTQGIDNKKYIIGESGQKIAASFRSGRFDDWSKARNLKPLKVGSRETSIPSNLLEDPSQGPAANGRTVRGKFKHKQMKAPKMPDKHRDNYYSQKKKVEKALQSGISVKGYNNAPGLRSELKSTEQIRKDRIIAEKKRAKNARPSKKRKF
On to B1, for which the binding entry is given as “binds”.

B2: Mak16 (protein, UniProt P10962 1-306)
chain: MSDEIVWQVINQSFCSHRIKAPNGQNFCRNEYNVTGLCTRQSCPLANSKYATVKCDNGKLYLYMKTPERAHTPAKLWERIKLSKNYTKALQQIDEHLLHWSKFFRHKCKQRFTKLTQVMITERRLALREEERHYVGVAPKVKRREQNRERKALVAAKIEKAIEKELMDRLKSGAYGDKPLNVDEKVWKKIMGQMEEENSQDEEEDWDEEEESDDGEVEYVADDGEGEYVDVDDLEKWLADSDREASSASESESDSESESDSDSDEENKNSAKRRKKGTSAKTKRPKVEIEYEEEHEVQNAEQEVAQ
In the case of B2, the binding entry is given as “binds”.

B3: Mak11 (protein, UniProt P20484 1-414)
chain: MSAIGDKNQFRIIVGSYEHNILCLSLDIPNQKENDAAKTPHFMPIFHFQAHSLSIKCLAVSRRYLVSGSNDEHIRIYDLQKRKELGTLLSHQGSITALQFSHPASSSEDAAVSKGSKNSKWLLSASEDHKIMVWRVKDWETVGTLKGHTARVNDVDIHPTNRIAISVSDDHSIRLWNLMTLRNAAVLKLRKYNTNGTCVRWLGAKGDYFAVGLRDRVLIYETGSAKVFKEIVFQRKTLMHIETHILPFDNKEYLSVGISDGNVHFYPCEELFEKVEENEKQEDDDDKEDISPAFSLLGHTNRIKDFKFYTNEFGTYLVTIGSDGKIVVWDMSTKEQVAVYDCGERLNCLTLCDESIEKYNTMKKRDAETADIGDQSEVESDTEELKKIMFGEKKKLNKKKRKQLKKSKVSVELE
Take B3: the binding result is given as “binds”.

B4: Nop2 (protein, UniProt P40991 1-618)
chain: MGSRRHKNKQAAPPTLEEFQARKEKKANRKLEKGKRPSTTQGDEVSDRKKKKSKPFKKSRKEEEEVVEEDKDLPEVDLEELSKARKSLFDDEEDDDEAGLVDEELKDEFDLEQEYDYDEDEDNDAHPIFSDDDDEADLEELNAQNMEALSKKLDEEEAEEAEEAEMELVEAENMQPRADILPTEEQEEMMAQETPNLTSTRTRMIEIVKVLENFKTLGAEGRSRGEYVDRLLKDICEYFGYTPFLAEKLFNLFSPAEAMEFFEANEIARPITIRTNTLKTRRRDLAQTLVNRGVNLQPIGSWTKVGLQIFDSQVPIGATPEYLAGHYILQAASSFLPVIALDPHENERILDMAAAPGGKTTYISAMMKNTGCVFANDANKSRTKSLIANIHRLGCTNTIVCNYDAREFPKVIGGFDRILLDAPCSGTGVIGKDQSVKVSRTEKDFIQIPHLQKQLLLSAIDSVDCNSKHGGVIVYSTCSVAVEEDEAVIDYALRKRPNVKLVDTGLAIGKEAFTSYRGKKFHPSVKLARRYYPHTYNVDGFFVAKFQKIGPSSFDDNQASAKEKETAARKEALEEGIIHSDFATFEDEEDDKYIEKSVKNNLLKKGVNPKAKRPSNEK
On to B4, for which the binding entry is listed as “binds”.

B5: Drs1 (protein, UniProt P32892 1-752)
chain: MVVGTKKYSNLDFVPTISDSEDDVPILDSSDDEKVEAKKTTKKRKGKNNKKKVSEGDNLDEDVHEDLDAGFKFDLDADDTTSNFQGWNFLAEGESNKDDAEAFVKKDVDLDKIIRRKGGLVKMAHIDSKQEEETEKEKVEKENDSDDEELAMDGFGMGAPMNNGDENQSEEEEEEEEKEEEEEEEEEQEEMTLEKGGKDDEIDEEDDSEEAKADFYAPETEGDEAKKQMYENFNSLSLSRPVLKGLASLGYVKPSPIQSATIPIALLGKDIIAGAVTGSGKTAAFMIPIIERLLYKPAKIASTRVIVLLPTRELAIQVADVGKQIARFVSGITFGLAVGGLNLRQQEQMLKSRPDIVIATPGRFIDHIRNSASFNVDSVEILVMDEADRMLEEGFQDELNEIMGLLPSNRQNLLFSATMNSKIKSLVSLSLKKPVRIMIDPPKKAATKLTQEFVRIRKRDHLKPALLFNLIRKLDPTGQKRIVVFVARKETAHRLRIIMGLLGMSVGELHGSLTQEQRLDSVNKFKNLEVPVLICTDLASRGLDIPKIEVVINYDMPKSYEIYLHRVGRTARAGREGRSVTFVGESSQDRSIVRAAIKSVEENKSLTQGKALGRNVDWVQIEETNKLVESMNDTIEDILVEEKEEKEILRAEMQLRKGENMLKHKKEIQARPRRTWFQSESDKKNSKVLGALSRNKKVTNSKKRKREEAKADGNGARSYRKTKTDRIADQERTFKKQKSTNSNKKKGFKSRR
As for B5, the binding result is reported as “binds”.

B6: Nsa1 (protein, UniProt P53136 1-463)
chain: MRLLVSCVDSGSIKEVLCNIGTDTSVQSALQPFHVAPHLAEGLKAYVDRMWVISEDEAILARNSGVVELVKISKHLKENEALQVDPKGESKNEKSLSDDLPKFDISEFEITSSVSDLFDDAKLESLSSKSVKRTKLVDGFVTLCPIKKDSSNNTFVAATKSGLLHIIKKGEDKKLIKLASLGLKAPVEFLQLYDLEDTDTDKYIFAYGGEENLIKLVEIDSSFQSLKQIWEAKNVKNDRLDMRVPVWPMALRFLEPSPGKTEKGKLNYQFAAITRWSHLTKYSTQHGRKPFAQIDLLPNREPLSQMEVFDAKGENVVSSLGNFQSETFNELNVITTDYKKNVFKFDGNGRMLGKVGRDDITGSSTYIHVHDGKYLLQGGLDRYVRIFDIKTNKMLVKVYVGSRINFIVMLDDVEIEMPLSPSAKAAKGKQKRKVTELEEDADELWNKLEGKVAASKASKKSKI
With B6, the binding entry is listed as “binds”.

B7: Nop53 (protein, UniProt Q12080 1-455)
chain: MAPTNLTKKPSQYKQSSRKGKKAWRKNIDLSDVEQYMEKKIDHEITHGTSDITSLQNDALFHVDVEGDEILKNKLIKRKQIKKVLKSKEILDAVKTNSKIAALNHHKNSSGNPNKIQGVSKHELKKLMALAGRVHGESKIKNRVAKDGLVKTTAGDLWGEESNSKKQKVKLPSGIKLDVEKKDQIPEELLKKSTTSWSTASVRPSTLDIEPIAVKEFTEIPHAGKSYNPNNKAWSELINKEYKEEKAREDERIALEKYKERIRHLMETLDDNEEEESSSNEEEEEEEEENENENESTQCSGSDKEIKLSINKPVKNKKKTKYQRNKAKRHEEKVKLQQELKELRQRVKDLEEVINSEETEILSAIESDSNKVKKSKKNKKHKLGTKYSVIDERLEIKFSDELSDSLRKLKPEGNLLYDTVRKLQSSGKVETRVPVRKGRKYKQKITEKWTHKDFK
For B7, the binding entry was “binds weakly”.

B8: Ytm1 (protein, UniProt Q12024 1-460)
chain: MTEDKSQVKIRFFTREKDELLHVQDTPMYAPISLKRYGLSEIVNHLLGSEKPVPFDFLIEGELLRTSLHDYLTKKGLSSEASLNVEYTRAILPPSYLNSFSNEDWVSSLDVGDGSKHIISGSYDGIVRTWDLSGNVQKQYSGHSGPIRAVKYISNTRLVSAGNDRTLRLWKTKNDDLKLTSQQQAQEDDDDEVNIEDGKTLAILEGHKAPVVSIDVSDNSRILSASYDNSIGFWSTIYKEMTVVDPLEDINNPNNKISTAARKRRKLTMKDGTIRRRAPLSLLESHTAPVEQVIFDSTDNTVGYSVSQDHTIKTWDLVTARCIDTRTTSYSLLSIAQLSTLNLLACGSSARHITLHDPRVGASSKVTQQQLIGHKNFVSSLDTCPENEYILCSGSHDGTVKVWDVRSTSPMYTITREDKSVQKGVNDKVFAVKWAEKVGIISAGQDKKIQINKGDNIFKN
Consider B8, for which the binding entry is listed as “binds”.

B9: Erb1 (protein, UniProt Q04660 1-807)
chain: MMAKNNKTTEAKMSKKRAASEESDVEEDEDKLLSVDGLIDAEASESDEDDDEYESAVEEKESSSDKEAQDDSDDDSDAELNKLLAEEEGDGEEDYDSSEFSDDTTSLTDRLSGVKLQTIVDPNIYSKYADGSDRIIKPEINPVYDSDDSDAETQNTIGNIPLSAYDEMPHIGYDINGKRIMRPAKGSALDQLLDSIELPEGWTGLLDKNSGSSLNLTKEELELISKIQRNEQTDDSINPYEPLIDWFTRHEEVMPLTAVPEPKRRFVPSKNEAKRVMKIVRAIREGRIIPPKKLKEMKEKEKIENYQYDLWGDSTETNDHVMHLRAPKLPPPTNEESYNPPEEYLLSPEEKEAWENTEYSERERNFIPQKYSALRKVPGYGESIRERFERSLDLYLAPRVRKNKLNIDPNSLIPELPSPKDLRPFPIRCSTIYAGHKGKVRTLSIDPSGLWLATGSDDGTVRVWEILTGREVYRTTLIDDEENPDYHIECIEWNPDANNGILAVAVGENIHLIVPPIFGYDIENNGKTKIEDGFGYDTFGTVKKSNLEVNENGDGDEDGENESAKNAVKKQVAQWNKPSQKQLEKDICITISCKKTVKKLSWHRKGDYFVTVQPDSGNTSVLIHQVSKHLTQSPFKKSKGIIMDAKFHPFKPQLFVCSQRYVRIYDLSQQILVKKLLPGARWLSKIDIHPRGDNLIASSFDKRVLWHDLDLASTPYKTLRYHEKAVRSVNFHKKLPLFSSAADDGTIHVFHATVYDDMMKNPMIVPLKKLTGHKVINSLGVLDAIWHPREAWLFSAGADNTARLWTT
Consider B9, for which the binding result is “binds”.
